In patent US20100196365A1, “USE OF IMIDAZOQUINOLINES FOR THE TREATMENT OF EGFR DEPENDENT DISEASES OR DISEASES THAT HAVE ACQUIRED RESISTANCE TO AGENTS THAT TARGET EGFR FAMILY MEMBERS” (priority 2007, published 2010):

Tested on: NCI-H358 cell line
Assay: proliferation assay (methylene blue assay) with NCI-H358 tumor cells
Type: cell-based
Settings: Homo sapiens, read-out: Growth Inhibitory 50 (GI50)

Structure (SMILES): COc1cc2ncnc(Nc3ccc(F)c(Cl)c3)c2cc1OCCCN1CCOCC1 [gefitinib, reference compound]
- GI50: 542 nM
